# Laboratory results: PubChem BioAssay AID1053208 (Peter MacCallum Cancer Centre, 2014)
# Screen: 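Synthetic lethal interactions between gene loss and doxorubicin in osteosarcoma cells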 (primary screen)
# Cell system: mouse osteosarcoma cells, early-passage culture from an engineered mouse model of fibroblastic bone tumour
# Reagent: siRNA pool against mouse genes, 40 nM
# Duration: about 120 h (48 h before drug, then 72 h with drug)
# Conditions: doxorubicin 100 nM for 72 h, roughly 30-40% inhibitory dose
# Read-out: 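Luminescent ATP signal taken as viability with or without 100 nM doxorubicin for 72 h; mean of two wells set against non-targeting siRNA and turned into robust z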
# Direction: viability z-score with doxorubicin and doxorubicin viability vs non-targeting: higher = more viable cells under doxorubicin; viability z-score without drug: higher = more viable cells with knock-down alone; z-score of drug to no-drug ratio: higher = less drug sensitisation by knock-down
# Rule for the call: 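Called active if knock-down leaves viability unchanged without drug (z within -2 to 2) but lowers it with doxorubicin (z at or under -2)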
# The whole screen tested about 17,000 reagents; below is a random part of them. 788 of all reagents (4.7%) were called active. 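Calls rest on z-score classes alone; an extra cut-off of viability at most 70% of control was not applied to them.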
target,combined z-score class,viability z-score with doxorubicin,viability z-score without drug,z-score of drug to no-drug ratio,doxorubicin viability vs non-targeting,call
Jrkl,no change with or without drug,0.67,0.34,0.56,1,inactive
Pofut3,no change with or without drug,-0.45,1.52,-1.24,0.9,inactive
1700029M20Rik,low cell count with doxorubicin only,-3.15,0.84,-3.6,0.66,active
Slc46a3,no change with or without drug,-1.12,1.18,-1.8,0.84,inactive
Abcg1,no change with or without drug,-0.67,-1.35,0.34,0.88,inactive
Cltrn,no change with or without drug,1.01,0.84,0.56,1.03,inactive
Rdh11,no change with or without drug,0,0.51,-0.22,0.94,inactive
Zdhhc16,no change with or without drug,0.45,1.18,-0.22,0.98,inactive
Capns1,no change with or without drug,0.45,0.84,0,0.98,inactive
Spaca7b,no change with or without drug,-1.46,-0.17,-1.35,0.81,inactive
Defb41,no change with or without drug,-0.34,-0.17,-0.11,0.91,inactive
Sugct,no change with or without drug,-0.9,-0.34,-0.67,0.86,inactive
Sema4a,low cell count without drug only,-1.57,-2.53,0.22,0.8,inactive
Vmn1r72,no change with or without drug,1.69,0.67,1.35,1.09,inactive
Cdk7,no change with or without drug,-0.22,-1.69,1.12,0.92,inactive
Rubcnl,no change with or without drug,0.22,1.69,-0.79,0.96,inactive
Lnpk,no change with or without drug,-0.22,-1.01,0.56,0.92,inactive
Gpc4,no change with or without drug,0.67,-0.51,1.24,1,inactive
Clmb,no change with or without drug,-1.01,1.18,-1.69,0.85,inactive
Alox15,no change with or without drug,0,0.51,-0.22,0.94,inactive
Ttr,no change with or without drug,1.46,1.01,0.9,1.07,inactive
Adck1,no change with or without drug,0,0.17,0,0.94,inactive
Or2z9,no change with or without drug,0,-1.01,0.9,0.94,inactive
Phyhipl,no change with or without drug,-0.9,-0.34,-0.67,0.86,inactive
Actn4,no change with or without drug,-0.45,-0.17,-0.22,0.9,inactive
Serpina7,no change with or without drug,0.67,-0.51,1.24,1,inactive
P2ry12,no change with or without drug,-0.45,1.01,-1.01,0.9,inactive
Ak3,no change with or without drug,0.34,-0.34,0.67,0.97,inactive
Etnppl,no change with or without drug,-0.22,1.18,-0.9,0.92,inactive
BC004004,no change with or without drug,0.11,0.51,-0.11,0.95,inactive
Or51a43,no change with or without drug,1.35,1.35,0.56,1.06,inactive
B3gnt8,no change with or without drug,-1.46,-0.51,-1.12,0.81,inactive
Klk4,high cell count with doxorubicin only,2.02,1.18,1.35,1.12,inactive
Nktr,no change with or without drug,0.67,-1.01,1.57,1,inactive
Sgcb,no change with or without drug,-1.35,-1.01,-0.67,0.82,inactive
Gatad2a,no change with or without drug,-1.35,0.17,-1.46,0.82,inactive
Igfbp1,no change with or without drug,0.22,-0.84,1.01,0.96,inactive
Zfp759,no change with or without drug,-1.35,-0.51,-1.01,0.82,inactive
Slc6a4,no change with or without drug,1.8,1.69,0.79,1.1,inactive
Gpd2,no change with or without drug,1.35,0.51,1.12,1.06,inactive
Ca11,no change with or without drug,-0.9,0,-0.79,0.86,inactive
Krtap3-3,no change with or without drug,-0.45,-1.01,0.34,0.9,inactive
Krt31,low cell count without drug only,-1.57,-3.37,1.01,0.8,inactive
Tpd52l1,no change with or without drug,0.56,-0.51,1.12,0.99,inactive
Sack1g,high cell count without drug only,-1.69,2.19,-2.81,0.79,inactive
Myo6,no change with or without drug,1.46,1.18,0.79,1.07,inactive
Atn1,no change with or without drug,0,-0.51,0.45,0.94,inactive
Cst9,no change with or without drug,0.56,0.67,0.22,0.99,inactive
Ctxn1,no change with or without drug,-0.56,1.01,-1.12,0.89,inactive
Teddm3,no change with or without drug,-0.22,1.52,-1.12,0.92,inactive

Sorted by “viability z-score without drug” (highest first): 4 of the entries above
target,combined z-score class,viability z-score with doxorubicin,viability z-score without drug,z-score of drug to no-drug ratio,doxorubicin viability vs non-targeting,call
Slc46a3,no change with or without drug,-1.12,1.18,-1.8,0.84,inactive
Cltrn,no change with or without drug,1.01,0.84,0.56,1.03,inactive
Rdh11,no change with or without drug,0,0.51,-0.22,0.94,inactive
Abcg1,no change with or without drug,-0.67,-1.35,0.34,0.88,inactive
